Patent US20030223996A1 (published 2003)
These are yes or no findings as the source states them, for the method shown. Some binding calls cover weakened binding; strength is not graded here.

The chains behind the UniProt entries cited, without tags or fusion partners. Where a name states a change or a piece, a line headed by the entry shows the natural chain unless it says otherwise. Residues count along the entry.
UniProt Q9Y275: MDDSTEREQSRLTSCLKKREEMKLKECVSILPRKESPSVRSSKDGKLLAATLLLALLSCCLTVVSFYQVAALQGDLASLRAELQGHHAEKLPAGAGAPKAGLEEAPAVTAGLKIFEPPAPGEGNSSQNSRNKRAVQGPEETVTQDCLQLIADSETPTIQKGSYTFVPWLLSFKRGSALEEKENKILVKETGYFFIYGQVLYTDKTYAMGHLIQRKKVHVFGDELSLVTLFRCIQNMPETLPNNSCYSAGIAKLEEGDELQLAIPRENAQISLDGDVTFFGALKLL
UniProt Q9WU72, residues 127-309: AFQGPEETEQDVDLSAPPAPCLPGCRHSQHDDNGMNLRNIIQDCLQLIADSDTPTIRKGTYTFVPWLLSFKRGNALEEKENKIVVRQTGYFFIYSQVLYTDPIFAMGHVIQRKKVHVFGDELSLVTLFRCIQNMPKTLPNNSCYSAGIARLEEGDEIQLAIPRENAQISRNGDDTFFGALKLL

What was measured:
[1] = biological target: soluble form of human BLyS (human) (UniProt Q9Y275); assay: phage ELISA
[2] = biological target: biotinylated BLyS (human) (UniProt Q9Y275); assay: receptor binding inhibition assay on IM9 cells, phage scFv
[3] = biological target: biotinylated BLyS (human) (UniProt Q9Y275); assay: receptor binding inhibition assay on IM9 cells, purified scFv
mouse BLyS (mouse) = mouse BLyS (mouse) (UniProt Q9WU72); assay: phage ELISA
[4] = biological target: membrane-bound BLyS on U937 plasma membranes (human) (UniProt Q9Y275); assay: phage ELISA on U937 membranes
[5] = biological target: soluble form of human BLyS (human) (UniProt Q9Y275); assay: competition phage ELISA on U937 membranes; signal competed out by free BLyS

| binding [1] | binding [2] | binding [3] | binding (mouse BLyS (mouse)) | binding [4] | binding [5] | Binder |
| --- | --- | --- | --- | --- | --- | --- |
| binds | binds | binds | – | – | – | I026C04-K (scFv) scFv: QVQLVQSGAEVKKPGSSVKVSCRASGGSFNKHAISWVRQAPGRGLEWMGGILPMYGTANYAQKFQGRVTITADKLTNTVYMDLSRLRYEDTAVYYCARELGLSIVGATTGALDMWGKGTLVTVSSGGGGSGGGGSGGGGSAQSVLTQPPSVSAAPGQKVTISCSGSSSNIGNNYVSWYQQIPGTAPKLLIYENNKRPSGIPDRFSGSKSGASATLDITGLQTGDEADYYCGTWHSSQVVFGGGTKLTVLG |
| binds | – | – | binds | binds | binds | I003F12S (scFv) scFv: QVQLLQSAAELKKPGQSLKISCKGSGFTFTTYWIGWVRQLPGKGLEWMGIIYPGDSHTTYSPSFEGHVNISVDKSINTAYLQWSSLKASDTAMYYCARHDDDVLTGYYFESWGQGTMVTVSSGGGGSGGGGSGGGGSQSVLTQPASVSGSPGQSITISCTGTSSDVGGYNYVSWYQQHPGKAPKLMIYEGSKRPSGVSNRFSGSKSGNTASLTISGLQAEDEADYYCSSYTTRSTRVFGGGTKLTVLG |
